According to publication PMC4877050:
No constants are given. Whether binding was seen depends on the method and setting. In cells and extracts the contact can be indirect. Some binding calls cover weakened binding; strength is not graded here.

Protein sequences, listed by entry. Tags and fused reporters are not part of them. Lines headed by an entry give the natural chain unless they say otherwise; changes in a name come on top. Chains listed by the source or under a name are the forms on record and can include a tag or linker. Residues count along the entry.
UniProt Q07813: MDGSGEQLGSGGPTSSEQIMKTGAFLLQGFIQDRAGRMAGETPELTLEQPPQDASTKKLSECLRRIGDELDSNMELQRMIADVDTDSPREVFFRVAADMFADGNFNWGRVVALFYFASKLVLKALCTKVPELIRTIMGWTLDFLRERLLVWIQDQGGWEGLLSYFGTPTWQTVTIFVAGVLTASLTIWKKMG
wild-type Bcl-xL, GFP fusion protein derived from His-tagged ΔC Bcl-xL (Q07817, residues 1-209): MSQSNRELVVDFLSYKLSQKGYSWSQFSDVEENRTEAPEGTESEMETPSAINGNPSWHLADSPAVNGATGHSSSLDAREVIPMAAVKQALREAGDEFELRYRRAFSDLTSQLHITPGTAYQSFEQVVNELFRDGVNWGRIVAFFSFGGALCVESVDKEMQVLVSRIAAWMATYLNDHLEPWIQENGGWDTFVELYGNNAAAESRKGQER

Biological target: Bax (mouse (endogenous in TKPTS)) (UniProt Q07813)
Experiment: co-IP; Bax (from untreated or tBid-adenovirus-treated TKPTS cells) held on anti-Bax antibody on Protein-G-Dynabeads; TKPTS and Bcl-xL-transfected TAL cells mixed and homogenised, post-nuclear fraction adjusted to 150 mM NaCl, 50 mM Tris pH 7.4, 4 °C, 18 h; bound proteins blotted for Bcl-xL and Bax

| Substance | binding |
| --- | --- |
| S73D Bcl-xL, GFP fusion protein derived from His-tagged ΔC Bcl-xL (from UniProt Q07817-1 1-209) (domain or fragment) | binds |
| wild-type Bcl-xL, GFP fusion protein derived from His-tagged ΔC Bcl-xL (from UniProt Q07817-1 1-209) (domain or fragment) | binds |
